Results from patent US20220195054A1 (BERGEN TEKNOLOGIOVERF RING, published 2022).
No constants are given. Whether binding was seen depends on the method and setting. Some results given as binding are weak or reduced against the parent protein; the word gives no strength.

The chains behind the UniProt entries cited, without tags or fusion partners. Where a name states a change or a piece, a line headed by the entry shows the natural chain unless it says otherwise. A line that says so, or that is headed by a name, gives the form on record, which may keep a tag or linker.
Rhesus Axl-Fc (G7NLI7, form named): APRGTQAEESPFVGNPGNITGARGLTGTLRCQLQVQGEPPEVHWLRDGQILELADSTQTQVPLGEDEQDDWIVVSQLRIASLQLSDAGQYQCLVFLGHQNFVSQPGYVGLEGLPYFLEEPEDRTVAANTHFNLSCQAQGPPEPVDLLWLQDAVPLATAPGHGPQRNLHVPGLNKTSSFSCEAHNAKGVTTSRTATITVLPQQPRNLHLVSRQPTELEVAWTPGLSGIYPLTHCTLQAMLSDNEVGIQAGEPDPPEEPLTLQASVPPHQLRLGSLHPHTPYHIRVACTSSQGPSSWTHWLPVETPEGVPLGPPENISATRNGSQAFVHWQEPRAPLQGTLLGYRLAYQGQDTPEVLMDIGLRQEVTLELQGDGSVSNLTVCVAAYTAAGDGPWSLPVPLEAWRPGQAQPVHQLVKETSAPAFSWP

biological target: Rhesus Axl-Fc (rhesus) (UniProt G7NLI7); experiment: SPR (Biacore), Rhe-Axl-Fc immobilised (350.2 RU), antibody 25 µg/mL

Binder | binding
humanised 10G5 antibody H2L1 (antibody, human IgG1, kappa, V domains shown, H2L1 is read as GH2 heavy chain + GL1 light chain; also called hu10G5 H2L1; Hu10G5 (H2L1)) VH: EVQLVESGGGLVQPGGSLRLSCAASGYSFTDFYINWVRQAPGKGLEWVARIFPGGDNTYYNEKFKGRFTLSADTSKSTAYLQMNSLRAEDTAVYYCARRGLYYAMDYWGQGTLVTVSS VL: DIQMTQSPSSLSASVGDRVTITCRSSQSLVHSNGIPYLHWYQQKPGKAPKLLIYRVSNRFSGVPSRFSGSGSGTDFTLTISSLQPEDFATYYCSQGTHVPPTFGQGTKVEIKR | binds
humanised 10G5 antibody H2L1, second preparation (H2L1-prep2) (antibody, human IgG1, kappa, V domains shown) VH: EVQLVESGGGLVQPGGSLRLSCAASGYSFTDFYINWVRQAPGKGLEWVARIFPGGDNTYYNEKFKGRFTLSADTSKSTAYLQMNSLRAEDTAVYYCARRGLYYAMDYWGQGTLVTVSS VL: DIQMTQSPSSLSASVGDRVTITCRSSQSLVHSNGIPYLHWYQQKPGKAPKLLIYRVSNRFSGVPSRFSGSGSGTDFTLTISSLQPEDFATYYCSQGTHVPPTFGQGTKVEIKR | binds
chimeric monoclonal antibody 10G5 (mouse variable/human constant IgG1) (antibody, V domains shown, also called c10G5; C10G5) VH: QVQLQQSGAELVRPGASVKLSCKASGYSFTDFYINWVRQRPGQGLEWIARIFPGGDNTYYNEKFKGKATLTAEESSSTAYIQLSSLTSEDSAVYFCARRGLYYAMDYWGQGISVTVSS VL: DVLMTQTPLSLPVSLGDQASISCRSSQSLVHSNGIPYLHWYLQKPGQSPKLLIYRVSNRFSGVPDRFSGSGSGTDFTLKISRVEAEDLGVYFCSQGTHVPPTFGGGTKLEIK | binds
